Laboratory results from the supplement of paper PMC8728848.
This is one part of the list.

Assays:
Test in all cases: glycan array binding signal (z-score within array); higher = stronger binding
Details in all cases: glycan notation: IUPAC condensed, linker removed
[1] = molecular target: Neu5Ac(a2-3)Gal(b1-4)GlcNAc(b1-2)Man
How it was run: (§1)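 Arrays were curated from the Consortium for Functional Glycomics database, 3228 in total, and kept only where the protein sequence was available. Binding is expressed as a within-array Z-score. This score was averaged across arrays of the same protein sequence at different concentrations or buffers and across linkers, and negative values can be read as non-binding.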

[2] = molecular target: Neu5Ac(a2-3)Gal(b1-4)GlcNAc(b1-2)Man(a1-3)[GlcNAc(b1-2)Man(b1-4)GlcNAc(b1-2)Man(a1-6)]Man(b1-4)GlcNAc(b1-4)GlcNAc
How it was run: as §1

[3] = molecular target: Neu5Ac(a2-3)Gal(b1-4)GlcNAc(b1-2)Man(a1-3)[GlcNAc(b1-4)][Neu5Ac(a2-3)Gal(b1-4)GlcNAc(b1-2)Man(a1-6)]Man(b1-4)GlcNAc(b1-4)GlcNAc
How it was run: as §1

[4] = molecular target: Neu5Ac(a2-3)Gal(b1-4)GlcNAc(b1-2)Man(a1-3)[Neu5Ac(a2-3)Gal(b1-4)GlcNAc(b1-2)Man(a1-6)]Man(b1-4)GlcNAc(b1-4)GlcNAc
How it was run: as §1

[5] = molecular target: Neu5Ac(a2-3)Gal(b1-4)GlcNAc(b1-2)Man(a1-3)[Neu5Ac(a2-3)Gal(b1-4)GlcNAc(b1-2)Man(a1-6)]Man(b1-4)GlcNAc(b1-4)[Fuc(a1-6)]GlcNAc
How it was run: as §1

[6] = molecular target: Neu5Ac(a2-3)Gal(b1-4)GlcNAc(b1-2)Man(a1-3)[Neu5Ac(a2-6)Gal(b1-4)GlcNAc(b1-2)Man(a1-6)]Man(b1-4)GlcNAc(b1-4)GlcNAc
How it was run: as §1

[7] = molecular target: Neu5Ac(a2-3)Gal(b1-4)GlcNAc(b1-2)[Neu5Ac(a2-3)Gal(b1-4)GlcNAc(b1-4)]Man(a1-3)[GlcNAc(b1-4)][Neu5Ac(a2-3)Gal(b1-4)GlcNAc(b1-2)[Neu5Ac(a2-3)Gal(b1-4)GlcNAc(b1-6)]Man(a1-6)]Man(b1-4)GlcNAc(b1-4)GlcNAc
How it was run: as §1

[8] = molecular target: Neu5Ac(a2-3)Gal(b1-4)GlcNAc(b1-2)[Neu5Ac(a2-3)Gal(b1-4)GlcNAc(b1-4)]Man(a1-3)[GlcNAc(b1-4)][Neu5Ac(a2-3)Gal(b1-4)GlcNAc(b1-4)Man(a1-6)]Man(b1-4)GlcNAc(b1-4)GlcNAc
How it was run: as §1

[9] = molecular target: Neu5Ac(a2-3)Gal(b1-4)GlcNAc(b1-2)[Neu5Ac(a2-3)Gal(b1-4)GlcNAc(b1-6)]Man(a1-6)[Neu5Ac(a2-3)Gal(b1-4)GlcNAc(b1-2)Man(a1-3)][GlcNAc(b1-4)]Man(b1-4)GlcNAc(b1-4)GlcNAc
How it was run: as §1

[10] = molecular target: Neu5Ac(a2-3)Gal(b1-4)GlcNAc(b1-3)Gal
How it was run: as §1

[11] = molecular target: Neu5Ac(a2-3)Gal(b1-4)GlcNAc(b1-3)Gal(b1-3)GlcNAc
How it was run: as §1

[12] = molecular target: Neu5Ac(a2-3)Gal(b1-4)GlcNAc(b1-3)Gal(b1-4)GlcNAc
How it was run: as §1

[13] = molecular target: Neu5Ac(a2-3)Gal(b1-4)GlcNAc(b1-3)Gal(b1-4)GlcNAc(b1-2)Man(a1-3)[Neu5Ac(a2-3)Gal(b1-4)GlcNAc(b1-3)Gal(b1-4)GlcNAc(b1-2)Man(a1-6)]Man(b1-4)GlcNAc(b1-4)GlcNAc
How it was run: as §1

[14] = molecular target: Neu5Ac(a2-3)Gal(b1-4)GlcNAc(b1-3)Gal(b1-4)GlcNAc(b1-3)Gal(b1-4)GlcNAc
How it was run: as §1

[15] = molecular target: Neu5Ac(a2-3)Gal(b1-4)GlcNAc(b1-3)Gal(b1-4)GlcNAc(b1-3)Gal(b1-4)GlcNAc(b1-2)Man(a1-3)[Neu5Ac(a2-3)Gal(b1-4)GlcNAc(b1-3)Gal(b1-4)GlcNAc(b1-3)Gal(b1-4)GlcNAc(b1-2)Man(a1-6)]GalNAc
How it was run: as §1

[16] = molecular target: Neu5Ac(a2-3)Gal(b1-4)GlcNAc(b1-3)Gal(b1-4)GlcNAc(b1-3)GalNAc
How it was run: as §1

[17] = molecular target: Neu5Ac(a2-3)Gal(b1-4)GlcNAc(b1-3)Gal(b1-4)GlcNAc(b1-3)[Neu5Ac(a2-3)Gal(b1-4)GlcNAc(b1-3)Gal(b1-4)GlcNAc(b1-6)]GalNAc
How it was run: as §1

[18] = molecular target: Neu5Ac(a2-3)Gal(b1-4)GlcNAc(b1-3)Gal(b1-4)GlcNAc(b1-6)[Gal(b1-3)]GalNAc
How it was run: as §1

[19] = molecular target: Neu5Ac(a2-3)Gal(b1-4)GlcNAc(b1-3)Gal(b1-4)[Fuc(a1-3)]GlcNAc
How it was run: as §1

[20] = molecular target: Neu5Ac(a2-3)Gal(b1-4)GlcNAc(b1-3)GalNAc
How it was run: as §1

[21] = molecular target: Neu5Ac(a2-3)Gal(b1-4)GlcNAc(b1-3)[Neu5Ac(a2-3)Gal(b1-4)GlcNAc(b1-6)]GalNAc
How it was run: as §1

[22] = molecular target: Neu5Ac(a2-3)Gal(b1-4)GlcNAc(b1-6)GalNAc
How it was run: as §1

[23] = molecular target: Neu5Ac(a2-3)Gal(b1-4)GlcNAc(b1-6)[Gal(b1-3)]GalNAc
How it was run: as §1

[24] = molecular target: Neu5Ac(a2-3)Gal(b1-4)GlcNAc(b1-6)[Neu5Ac(a2-3)Gal(b1-3)]GalNAc
How it was run: as §1

[25] = molecular target: Neu5Ac(a2-3)Gal(b1-4)GlcNAc6S
How it was run: as §1

[26] = molecular target: Neu5Ac(a2-3)Gal(b1-4)[Fuc(a1-3)]GlcNAc
How it was run: as §1

[27] = molecular target: Neu5Ac(a2-3)Gal(b1-4)[Fuc(a1-3)]GlcNAc(b1-2)Man
How it was run: as §1

[28] = molecular target: Neu5Ac(a2-3)Gal(b1-4)[Fuc(a1-3)]GlcNAc(b1-3)Gal
How it was run: as §1

B1: GST-Gap1 (Streptococcus parasanguinis), A1C3L5 (protein)
chain: MFYFVPSWYNGQRQWYYDTPWWFRVKNRMTFDDSVNQVKMFLQGQEEIGLMILNYQPQLRYFLHKQNIFGIYYWSFFDDIQNITRSYTKIIHLKDLNWPEGCEFLYSPFAVVVRLKGEIFAIVNYAEDGNLHSVSFQKNGKVTKDYIFDDRGFLSSILYYDIDERPLYQDYLNINGVWQVREFLKKENDPTPILMINDFSDQTFSKKYYNGWEELIKERLAIFQNNHVENEDVFVLASDTQHNQLVSSIFKEHRKIYSFFGNRFNLENLGQDRISINDATFLVVDTEKNEELLRKTCENLVFKSIPIVRLSPFDSRLRLGHSQTVKEQIIYFHIDNIELDELYSVIAIILELMTLHLDIELRIVTFRQDFQLDLLKTWIIDFIKTNHFEDLLFKQISEGENEIEDEGEIELSRIAMECFTNENQIIKCLDTARLVIDLGIEPDLYTQIASISAGIPQINRVSSDYVIHQKNGLVISDISKLSSAIEFYFDGLFNWNEALIYAVRKMSDYTSGKILKQWKGMLKKK
For B1, the “glycan array binding signal (z-score)” value [1] was 1.59, the “glycan array binding signal (z-score)” value [2] was -0.184 and the “glycan array binding signal (z-score)” value [3] was 0.815. The “glycan array binding signal (z-score)” value [4] was -1.31, the “glycan array binding signal (z-score)” value [5] was 1.7 and the “glycan array binding signal (z-score)” value [6] was -0.955. For the same binder, the “glycan array binding signal (z-score)” value [7] was -0.205, the “glycan array binding signal (z-score)” value [8] was -0.567 and the “glycan array binding signal (z-score)” value [9] was -0.37. The “glycan array binding signal (z-score)” value [10] was -0.054, the “glycan array binding signal (z-score)” value [11] was 1.11 and the “glycan array binding signal (z-score)” value [12] was -0.007. The “glycan array binding signal (z-score)” value [13] was 2.28, the “glycan array binding signal (z-score)” value [14] was -0.435 and the “glycan array binding signal (z-score)” value [15] was 2.15. The “glycan array binding signal (z-score)” value [16] was -0.012, the “glycan array binding signal (z-score)” value [17] was 0.525 and the “glycan array binding signal (z-score)” value [18] was -0.747. For the same binder, the “glycan array binding signal (z-score)” value [19] was -0.346, the “glycan array binding signal (z-score)” value [20] was -0.108 and the “glycan array binding signal (z-score)” value [21] was 0.39. The “glycan array binding signal (z-score)” value [22] was 0.215, the “glycan array binding signal (z-score)” value [23] was -0.423 and the “glycan array binding signal (z-score)” value [24] was 0.09. For the same binder, the “glycan array binding signal (z-score)” value [25] was -0.075, the “glycan array binding signal (z-score)” value [26] was -0.399 and the “glycan array binding signal (z-score)” value [27] was -1.03. The “glycan array binding signal (z-score)” value [28] was -0.085.
